These are yes or no findings as the source states them, for the method shown. Some results given as binding are weak or reduced against the parent protein; the word gives no strength.

In test [1] the target is T1, Human prolactin receptor (PRLR) on cells (T47D; HEK293 or Ba/F cells stably transfected with human PRLR) (human) (UniProt P16471).
T1 sequence (looked up): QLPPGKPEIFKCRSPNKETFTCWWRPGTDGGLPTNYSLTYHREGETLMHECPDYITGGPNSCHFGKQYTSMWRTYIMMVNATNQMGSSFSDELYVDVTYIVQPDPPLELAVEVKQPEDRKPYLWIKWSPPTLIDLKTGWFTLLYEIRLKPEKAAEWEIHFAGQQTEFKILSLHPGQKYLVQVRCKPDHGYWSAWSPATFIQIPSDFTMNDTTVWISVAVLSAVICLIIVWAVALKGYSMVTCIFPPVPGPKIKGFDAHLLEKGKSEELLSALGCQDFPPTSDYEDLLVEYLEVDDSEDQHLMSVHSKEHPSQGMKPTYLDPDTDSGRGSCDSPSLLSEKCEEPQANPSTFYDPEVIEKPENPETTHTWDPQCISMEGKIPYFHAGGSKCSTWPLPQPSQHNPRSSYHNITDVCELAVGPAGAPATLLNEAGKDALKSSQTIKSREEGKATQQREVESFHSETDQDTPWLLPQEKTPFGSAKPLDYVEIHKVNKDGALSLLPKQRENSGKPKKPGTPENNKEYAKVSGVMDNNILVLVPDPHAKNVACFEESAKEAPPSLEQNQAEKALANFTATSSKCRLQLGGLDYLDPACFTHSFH
The test is described as follows: FACS on HEK293 cells stably expressing human PRLR, single antibody concentration 0.37 µg/ml, PE-conjugated goat anti-human IgG detection, compared with parental HEK293 cells.

Test [2] addresses T1, Human prolactin receptor (PRLR) on cells (T47D; HEK293 or Ba/F cells stably transfected with human PRLR) (human). The test is described as follows: Flow cytometry at a fixed concentration on HEK293 cells stably expressing human PRLR. On the technique in general: Flow cytometry measures light scatter and fluorescence of single cells or particles in a stream.
Test [3] has as its target T2, Murine prolactin receptor (PRLR) on cells (HEK293 or Ba/F cells stably transfected with murine PRLR) (mouse) (UniProt Q08501).
T2 sequence (looked up): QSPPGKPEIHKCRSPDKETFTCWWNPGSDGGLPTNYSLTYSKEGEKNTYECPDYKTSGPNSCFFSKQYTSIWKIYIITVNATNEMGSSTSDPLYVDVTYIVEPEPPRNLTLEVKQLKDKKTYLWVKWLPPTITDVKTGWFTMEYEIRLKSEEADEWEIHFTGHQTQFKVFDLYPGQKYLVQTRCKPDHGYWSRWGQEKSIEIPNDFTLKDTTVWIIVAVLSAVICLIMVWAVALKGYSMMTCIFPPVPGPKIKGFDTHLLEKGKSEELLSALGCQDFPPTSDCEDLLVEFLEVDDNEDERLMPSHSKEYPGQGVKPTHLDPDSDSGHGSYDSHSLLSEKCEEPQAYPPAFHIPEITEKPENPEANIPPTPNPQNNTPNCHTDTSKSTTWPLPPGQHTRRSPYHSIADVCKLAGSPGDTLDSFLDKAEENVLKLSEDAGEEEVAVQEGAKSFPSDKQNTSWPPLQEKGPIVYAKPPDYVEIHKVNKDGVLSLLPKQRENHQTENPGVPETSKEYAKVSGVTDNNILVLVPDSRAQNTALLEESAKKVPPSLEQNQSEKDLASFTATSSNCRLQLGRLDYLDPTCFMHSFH
As to the kind of experiment: FACS on HEK293 cells stably expressing murine PRLR, single antibody concentration 0.37 µg/ml, PE-conjugated goat anti-human IgG detection, compared with parental HEK293 cells.

Test [4] addresses T2, Murine prolactin receptor (PRLR) on cells (HEK293 or Ba/F cells stably transfected with murine PRLR) (mouse). As to the kind of experiment: Flow cytometry at a fixed concentration on HEK293 cells stably expressing murine PRLR.
Test [5] has as its target T3, Rat prolactin receptor (PRLR) on rat lymphoma cell line Nb2 (rat) (UniProt P05710).
T3 sequence (looked up): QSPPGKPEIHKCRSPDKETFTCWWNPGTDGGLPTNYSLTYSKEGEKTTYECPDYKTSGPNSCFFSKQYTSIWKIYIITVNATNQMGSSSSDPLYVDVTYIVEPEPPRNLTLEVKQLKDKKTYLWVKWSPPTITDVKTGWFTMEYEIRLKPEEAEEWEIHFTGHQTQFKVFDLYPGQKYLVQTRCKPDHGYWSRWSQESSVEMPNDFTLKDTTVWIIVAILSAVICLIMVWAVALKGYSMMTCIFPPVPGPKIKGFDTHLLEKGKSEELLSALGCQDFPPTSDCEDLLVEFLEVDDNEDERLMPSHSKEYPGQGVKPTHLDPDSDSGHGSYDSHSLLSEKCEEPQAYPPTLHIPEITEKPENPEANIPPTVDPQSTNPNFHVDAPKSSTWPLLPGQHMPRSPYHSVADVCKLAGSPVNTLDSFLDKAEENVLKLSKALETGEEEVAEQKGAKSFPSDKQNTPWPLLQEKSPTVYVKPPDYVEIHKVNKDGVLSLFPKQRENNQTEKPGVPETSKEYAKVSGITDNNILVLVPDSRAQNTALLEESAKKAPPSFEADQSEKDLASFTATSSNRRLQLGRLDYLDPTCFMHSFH
As to the kind of experiment: Statement in Example 6 (Nb2-11 rat lymphoma cells).

B1: 001-E06 (human IgG1) (antibody, V domains shown)
VH: QVELLESGGGLVQPGGSLRLSCAASGFTFSSYWMSWVRQAPGKGLEWVSSVSDTGTDTHYADSVKGRFTISRDNSKNTLYLQMNSLRAEDTAVYYCAKTPLAYSSGWYYFDYWGQGTLVTVSS
VL: DIVLTQPPSASGTPGQRVTISCSGSSSNIGSNTVNWYQQLPGTAPKLLIYRNYQRPSGVPDRFSGSKSGTSASLAISGLRSEDEADYYCQSYDSSLSGSVFGGGTKLTVLG
For B1, the binding result in test [1], in test [2], in test [3] and in test [4] was “binds” throughout.

B2: XHA06.642 (Novartis, WO2008/22295; IgG1) (antibody, V domains shown)
VH: EVQLVESGGDLVKPGGSLKLSCAVSGFTFSSYGMSWVRQTPDKRLEWVATVSSGGTYTYYPDSVKGRFTISRDNAKNTLYLQMSSLKSEDSAMYYCARHRGNYYATYYYAMDYWGQGTSVTVSS
VL: DIVLTQSPASLAVSLGQGATISCRASKSVSTSGYTYMHWYQQKPGQPPKLLIYLASNLESGVPARFSGSGSGTDFTLNIHPVEEEDAATYYCQHSGELPPSFGGGTKLEIKR
As to B2, in test [5], the binding entry was “binds”.

Values taken from US20120315276A1.
